Source: the supplement of paper PMC10849652
The other results are listed elsewhere or left out.

The chains behind the UniProt entries cited, without tags or fusion partners. Where a name states a change or a piece, a line headed by the entry shows the natural chain unless it says otherwise.
UniProt Q96G28: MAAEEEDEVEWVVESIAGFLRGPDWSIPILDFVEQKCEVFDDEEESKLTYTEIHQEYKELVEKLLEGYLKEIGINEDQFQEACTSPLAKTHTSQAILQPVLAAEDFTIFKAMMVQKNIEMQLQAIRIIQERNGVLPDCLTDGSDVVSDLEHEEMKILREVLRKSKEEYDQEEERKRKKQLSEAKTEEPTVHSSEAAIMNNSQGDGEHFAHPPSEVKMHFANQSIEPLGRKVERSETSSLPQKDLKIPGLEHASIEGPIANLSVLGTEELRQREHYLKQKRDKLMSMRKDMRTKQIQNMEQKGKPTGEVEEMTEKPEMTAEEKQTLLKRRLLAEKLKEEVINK
UniProt O75956: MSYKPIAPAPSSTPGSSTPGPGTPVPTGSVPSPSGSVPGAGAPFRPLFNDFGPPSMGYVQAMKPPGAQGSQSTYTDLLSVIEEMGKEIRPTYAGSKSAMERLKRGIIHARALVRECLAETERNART
UniProt A8MTT3: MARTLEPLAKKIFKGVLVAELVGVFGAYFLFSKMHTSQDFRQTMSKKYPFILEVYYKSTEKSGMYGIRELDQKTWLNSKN
UniProt Q6DT37: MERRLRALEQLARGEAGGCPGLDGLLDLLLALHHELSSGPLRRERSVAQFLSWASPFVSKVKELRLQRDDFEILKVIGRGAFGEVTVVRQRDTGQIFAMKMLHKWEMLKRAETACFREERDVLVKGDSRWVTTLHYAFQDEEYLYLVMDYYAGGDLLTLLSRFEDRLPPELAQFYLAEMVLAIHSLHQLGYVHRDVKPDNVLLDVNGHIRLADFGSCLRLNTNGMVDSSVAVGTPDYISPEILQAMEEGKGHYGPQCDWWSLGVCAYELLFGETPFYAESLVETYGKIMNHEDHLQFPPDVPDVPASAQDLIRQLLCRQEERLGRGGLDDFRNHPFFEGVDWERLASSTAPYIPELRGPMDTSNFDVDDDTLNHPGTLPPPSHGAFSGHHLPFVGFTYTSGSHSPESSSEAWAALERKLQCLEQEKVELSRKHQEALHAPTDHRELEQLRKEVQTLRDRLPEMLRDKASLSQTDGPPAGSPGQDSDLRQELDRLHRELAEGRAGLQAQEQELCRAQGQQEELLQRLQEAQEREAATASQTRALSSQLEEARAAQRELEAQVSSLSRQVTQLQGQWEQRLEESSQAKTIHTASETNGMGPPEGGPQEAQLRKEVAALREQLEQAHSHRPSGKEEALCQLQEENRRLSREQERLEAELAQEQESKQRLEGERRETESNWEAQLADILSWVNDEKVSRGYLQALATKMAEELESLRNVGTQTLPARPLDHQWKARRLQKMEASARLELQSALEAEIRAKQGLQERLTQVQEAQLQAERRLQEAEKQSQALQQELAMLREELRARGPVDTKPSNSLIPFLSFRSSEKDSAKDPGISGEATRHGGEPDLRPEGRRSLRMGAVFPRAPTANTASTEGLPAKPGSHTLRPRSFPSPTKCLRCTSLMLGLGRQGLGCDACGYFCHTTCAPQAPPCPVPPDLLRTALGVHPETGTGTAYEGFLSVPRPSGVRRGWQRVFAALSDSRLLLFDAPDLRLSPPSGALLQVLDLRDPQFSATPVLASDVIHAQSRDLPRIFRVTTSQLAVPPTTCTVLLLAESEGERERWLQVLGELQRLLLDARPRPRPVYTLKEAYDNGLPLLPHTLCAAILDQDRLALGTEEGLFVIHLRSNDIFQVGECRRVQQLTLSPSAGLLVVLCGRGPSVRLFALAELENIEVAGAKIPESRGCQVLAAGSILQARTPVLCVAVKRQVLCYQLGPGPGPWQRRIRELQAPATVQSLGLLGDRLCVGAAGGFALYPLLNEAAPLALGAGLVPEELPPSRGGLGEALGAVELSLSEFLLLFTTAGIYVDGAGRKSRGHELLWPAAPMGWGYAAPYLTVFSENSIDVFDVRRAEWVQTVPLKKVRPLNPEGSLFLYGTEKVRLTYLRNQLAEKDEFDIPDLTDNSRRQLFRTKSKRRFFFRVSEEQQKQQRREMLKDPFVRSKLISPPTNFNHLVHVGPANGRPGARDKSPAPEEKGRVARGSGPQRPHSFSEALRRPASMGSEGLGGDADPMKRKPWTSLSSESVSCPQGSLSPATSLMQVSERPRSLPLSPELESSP
UniProt P00751, whole entry, looked up: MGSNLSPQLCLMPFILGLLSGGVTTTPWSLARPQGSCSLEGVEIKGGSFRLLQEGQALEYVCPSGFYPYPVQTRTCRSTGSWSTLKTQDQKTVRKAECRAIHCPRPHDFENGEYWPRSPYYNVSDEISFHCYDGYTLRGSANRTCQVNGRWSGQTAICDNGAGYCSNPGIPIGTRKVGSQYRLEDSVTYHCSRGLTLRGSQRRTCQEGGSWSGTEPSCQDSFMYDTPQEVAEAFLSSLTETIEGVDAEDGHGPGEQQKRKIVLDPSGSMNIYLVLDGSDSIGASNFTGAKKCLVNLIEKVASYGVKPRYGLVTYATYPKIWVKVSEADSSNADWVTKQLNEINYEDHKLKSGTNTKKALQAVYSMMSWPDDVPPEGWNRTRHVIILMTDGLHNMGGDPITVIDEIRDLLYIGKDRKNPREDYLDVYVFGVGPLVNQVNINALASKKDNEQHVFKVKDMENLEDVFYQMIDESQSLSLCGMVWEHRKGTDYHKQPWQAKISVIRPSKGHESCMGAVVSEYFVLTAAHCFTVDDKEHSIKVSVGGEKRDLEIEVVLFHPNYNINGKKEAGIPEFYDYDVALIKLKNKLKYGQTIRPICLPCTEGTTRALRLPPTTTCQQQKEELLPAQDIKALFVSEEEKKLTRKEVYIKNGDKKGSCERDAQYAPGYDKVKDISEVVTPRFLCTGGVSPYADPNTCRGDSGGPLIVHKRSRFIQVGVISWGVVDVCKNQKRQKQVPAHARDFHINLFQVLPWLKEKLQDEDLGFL
UniProt Q5T655: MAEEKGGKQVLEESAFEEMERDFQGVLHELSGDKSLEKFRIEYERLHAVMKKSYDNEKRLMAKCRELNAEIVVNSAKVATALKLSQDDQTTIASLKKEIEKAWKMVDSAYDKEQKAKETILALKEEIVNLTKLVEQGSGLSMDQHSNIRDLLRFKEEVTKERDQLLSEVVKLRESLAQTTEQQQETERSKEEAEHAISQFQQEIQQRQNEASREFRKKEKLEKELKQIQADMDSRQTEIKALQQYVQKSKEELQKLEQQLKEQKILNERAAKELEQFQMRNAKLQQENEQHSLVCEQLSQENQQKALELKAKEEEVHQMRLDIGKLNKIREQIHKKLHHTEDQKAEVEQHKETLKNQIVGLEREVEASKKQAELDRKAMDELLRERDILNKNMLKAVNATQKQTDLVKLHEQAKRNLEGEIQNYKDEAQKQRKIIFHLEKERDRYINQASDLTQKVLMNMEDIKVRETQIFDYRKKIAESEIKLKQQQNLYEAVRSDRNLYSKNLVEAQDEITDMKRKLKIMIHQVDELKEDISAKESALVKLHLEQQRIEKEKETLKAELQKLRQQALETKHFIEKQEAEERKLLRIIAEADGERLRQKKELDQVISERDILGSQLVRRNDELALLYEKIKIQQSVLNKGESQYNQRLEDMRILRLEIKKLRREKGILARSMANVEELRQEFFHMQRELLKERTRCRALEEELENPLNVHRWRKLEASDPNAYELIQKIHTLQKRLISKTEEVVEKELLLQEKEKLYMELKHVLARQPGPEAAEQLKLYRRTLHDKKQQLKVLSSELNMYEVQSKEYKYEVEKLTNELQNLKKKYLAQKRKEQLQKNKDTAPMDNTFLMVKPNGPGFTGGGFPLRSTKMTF
UniProt P24386: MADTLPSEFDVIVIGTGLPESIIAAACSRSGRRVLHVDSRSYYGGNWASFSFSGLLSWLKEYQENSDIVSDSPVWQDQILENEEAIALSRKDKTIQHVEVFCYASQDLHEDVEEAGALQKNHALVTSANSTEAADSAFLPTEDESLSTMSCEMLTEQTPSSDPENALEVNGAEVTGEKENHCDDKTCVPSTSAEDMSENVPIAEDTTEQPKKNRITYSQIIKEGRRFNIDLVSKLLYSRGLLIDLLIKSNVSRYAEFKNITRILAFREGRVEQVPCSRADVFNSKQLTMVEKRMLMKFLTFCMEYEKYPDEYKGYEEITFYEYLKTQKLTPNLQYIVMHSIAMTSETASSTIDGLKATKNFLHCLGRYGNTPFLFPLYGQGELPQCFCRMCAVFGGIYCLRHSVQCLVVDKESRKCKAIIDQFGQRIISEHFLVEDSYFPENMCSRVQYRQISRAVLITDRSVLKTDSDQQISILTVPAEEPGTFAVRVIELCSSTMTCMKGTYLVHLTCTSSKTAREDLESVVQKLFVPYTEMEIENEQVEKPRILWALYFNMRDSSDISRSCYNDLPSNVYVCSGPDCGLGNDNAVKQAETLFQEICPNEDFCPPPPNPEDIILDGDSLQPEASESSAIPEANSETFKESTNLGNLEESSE
UniProt Q00537: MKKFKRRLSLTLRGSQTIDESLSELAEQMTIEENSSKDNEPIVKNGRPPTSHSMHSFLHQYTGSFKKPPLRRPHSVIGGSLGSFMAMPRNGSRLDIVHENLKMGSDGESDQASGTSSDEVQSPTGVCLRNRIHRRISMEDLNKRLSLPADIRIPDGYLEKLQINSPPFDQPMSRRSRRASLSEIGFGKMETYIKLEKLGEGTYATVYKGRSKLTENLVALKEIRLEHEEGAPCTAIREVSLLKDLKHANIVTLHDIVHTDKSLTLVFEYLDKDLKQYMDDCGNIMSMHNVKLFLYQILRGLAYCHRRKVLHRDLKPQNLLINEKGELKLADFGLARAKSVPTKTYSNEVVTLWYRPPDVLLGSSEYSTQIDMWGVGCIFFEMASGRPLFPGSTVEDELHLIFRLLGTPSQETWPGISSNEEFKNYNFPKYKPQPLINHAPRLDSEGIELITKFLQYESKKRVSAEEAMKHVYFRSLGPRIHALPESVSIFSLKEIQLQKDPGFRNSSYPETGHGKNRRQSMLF
UniProt P49918: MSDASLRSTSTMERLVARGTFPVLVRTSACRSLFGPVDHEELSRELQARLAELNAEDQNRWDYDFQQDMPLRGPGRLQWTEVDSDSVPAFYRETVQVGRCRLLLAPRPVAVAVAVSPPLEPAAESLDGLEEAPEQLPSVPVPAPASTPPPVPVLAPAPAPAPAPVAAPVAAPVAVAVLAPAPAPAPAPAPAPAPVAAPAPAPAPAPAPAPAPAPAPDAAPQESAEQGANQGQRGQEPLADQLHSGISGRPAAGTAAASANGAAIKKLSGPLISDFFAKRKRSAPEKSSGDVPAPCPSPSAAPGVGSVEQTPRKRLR
UniProt Q13111, whole entry, looked up: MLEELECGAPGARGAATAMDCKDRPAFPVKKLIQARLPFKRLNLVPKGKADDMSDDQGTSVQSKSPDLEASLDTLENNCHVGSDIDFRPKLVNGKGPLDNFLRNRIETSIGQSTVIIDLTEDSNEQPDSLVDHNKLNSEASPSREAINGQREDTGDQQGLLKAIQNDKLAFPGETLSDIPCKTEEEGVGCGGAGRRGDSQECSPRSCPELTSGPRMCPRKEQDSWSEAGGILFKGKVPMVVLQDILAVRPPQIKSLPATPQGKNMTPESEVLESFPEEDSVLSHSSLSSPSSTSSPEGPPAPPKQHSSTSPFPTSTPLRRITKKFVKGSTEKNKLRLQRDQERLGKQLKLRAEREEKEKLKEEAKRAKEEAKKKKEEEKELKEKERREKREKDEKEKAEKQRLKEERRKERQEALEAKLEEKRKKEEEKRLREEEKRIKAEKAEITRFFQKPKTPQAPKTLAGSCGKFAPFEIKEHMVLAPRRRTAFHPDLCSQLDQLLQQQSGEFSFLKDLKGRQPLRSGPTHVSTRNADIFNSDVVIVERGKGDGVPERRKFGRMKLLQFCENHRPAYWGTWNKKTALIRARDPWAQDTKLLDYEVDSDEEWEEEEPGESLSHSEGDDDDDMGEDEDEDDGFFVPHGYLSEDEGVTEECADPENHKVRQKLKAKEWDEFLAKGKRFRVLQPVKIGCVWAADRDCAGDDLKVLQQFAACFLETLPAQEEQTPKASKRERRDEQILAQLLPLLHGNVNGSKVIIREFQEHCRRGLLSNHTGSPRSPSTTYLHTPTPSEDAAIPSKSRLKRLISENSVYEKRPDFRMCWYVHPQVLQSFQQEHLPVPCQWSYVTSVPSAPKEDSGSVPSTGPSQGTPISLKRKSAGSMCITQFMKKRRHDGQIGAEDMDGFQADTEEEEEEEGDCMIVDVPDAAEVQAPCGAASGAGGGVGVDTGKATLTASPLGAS
UniProt Q00587: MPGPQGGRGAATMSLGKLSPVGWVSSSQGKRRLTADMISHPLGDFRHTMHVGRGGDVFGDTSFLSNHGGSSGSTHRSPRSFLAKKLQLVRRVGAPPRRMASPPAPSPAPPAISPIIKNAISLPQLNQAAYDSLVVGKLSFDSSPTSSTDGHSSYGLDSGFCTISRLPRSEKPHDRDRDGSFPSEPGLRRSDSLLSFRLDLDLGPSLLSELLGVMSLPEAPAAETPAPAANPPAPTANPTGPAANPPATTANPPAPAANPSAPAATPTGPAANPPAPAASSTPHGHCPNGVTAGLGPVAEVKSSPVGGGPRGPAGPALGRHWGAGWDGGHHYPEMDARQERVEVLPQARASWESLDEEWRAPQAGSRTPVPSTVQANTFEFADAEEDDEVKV

How the values were obtained:
Assay in all cases: log2 fold change, soluble protein after heating vs DMSO (PISA); higher = thermal stabilisation; K562 cells, 10 uM, 30 min; active = over 0.2 and 3.5 SD of the protein, either way, in both replicates (recomputed)
[1] = compound: CC[C@@H]1C(=O)N(C)c2cnc(Nc3ccc(C(=O)NC4CCN(C)CC4)cc3OC)nc2N1C1CCCC1
Summary of the method: (§1)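 K562 cells at 2×10^6 cells/mL were treated with 10 μM compound for 30 min. Aliquots were heated for 3 min across 48°C-58°C, pooled, and extracted in PBS with 0.5% NP-40 at 4°C; soluble protein was the supernatant after 21,000xg for 90 min. Soluble protein was quantified by TMTpro 16plex LC-MS/MS with channel sums equalised, and reported as log2 fold change in thermal stability against DMSO controls, with values from duplicates.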

[2] = compound: CC[C@@H]1C(=O)N(C)c2cnc(Nc3ccc(C(=O)N[C@H]4CC[C@H](N5CCN(CC6CC6)CC5)CC4)cc3OC)nc2N1C(C)C [volasertib]
Summary of the method: as §1

[3] = compound: CC[C@H](C)[C@@H](C(=O)N[C@@H]([C@@H](C)O)C(=O)N[C@@H](CC(C)C)C(=O)[C@]1(CO1)C)NC(=O)[C@H]([C@@H](C)CC)N(C)C(=O)C [epoxomicin]
Summary of the method: as §1

[4] = compound: CCn1cc(-c2ccnc3[nH]c(-c4cccc(CN(C)C)c4)cc23)c(-c2ccc(NC(=O)N(C)C)cc2)n1
Summary of the method: as §1

[5] = compound: CN(C)CC(=O)Nc1ccc2[nH]c(=O)c3ccccc3c2c1
Summary of the method: as §1

[6] = compound: CN1C2=C(C3=C1C(=O)N(N=C3)CC4=CC(=CC=C4)N)SC(=C2)S(=O)C
Summary of the method: as §1

[7] = compound: CN1CCC(CNc2ccc3ncc(-c4cccc(OC(F)(F)F)c4)n3n2)CC1
Summary of the method: as §1

[8] = compound: CN1CCN(CCOc2cc(OC3CCOCC3)c3c(Nc4c(Cl)ccc5c4OCO5)ncnc3c2)CC1 [saracatinib]
Summary of the method: as §1

[9] = compound: CN1CCN(c2nc(C3=C(c4c[nH]c5ccccc45)C(=O)NC3=O)c3ccccc3n2)CC1 [sotrastaurin]
Summary of the method: as §1

[10] = compound: CN1CCc2c(c3ccccc3n2Cc2ccc(C(=O)NO)cc2)C1 [Tubastatin A]
Summary of the method: as §1

[11] = compound: CNC(=O)C1=CC=CC=C1NC2=NC(=NC=C2Cl)NC3=C(C=C(C=C3)N4CCOCC4)OC
Summary of the method: as §1

[12] = compound: CNC(=O)c1ccc(Nc2ncc(C(F)(F)F)c(NCc3nccnc3N(C)S(C)(=O)=O)n2)cc1 [defactinib]
Summary of the method: as §1

[13] = compound: CNCc1ccc(-c2[nH]c3cc(F)cc4c3c2CCNC4=O)cc1 [rucaparib]
Summary of the method: as §1

[14] = compound: CNc1nc(-c2ccc3c(N)n[nH]c3c2)cc(N2C[C@@H](C(=O)NC3CCCCC3)CC[C@H]2C)n1
Summary of the method: as §1

[15] = compound: COC(=O)N[C@@H](C)CNc1nccc(-c2cn(C(C)C)nc2-c2cc(Cl)cc(NS(C)(=O)=O)c2F)n1 [encorafenib]
Summary of the method: as §1

[16] = compound: COC(=O)[C@H](CCSC)NC(=O)C1=C(C=C(C=C1)NC[C@H](CS)N)C2=CC=CC=C2
Summary of the method: as §1

[17] = compound: CC[C@H](C)N1C=C(C2=C(C=C(C=C21)C3=CN=C(C=C3)N4CCNCC4)C(=O)NCC5=C(C=C(NC5=O)C)C)C
Summary of the method: as §1

[18] = compound: CCn1c(C(=O)N(C2CC2)C2CC2)cc2c3c(ncn3C)c(Nc3cc(C)n(C)n3)nc21
Summary of the method: as §1

[19] = compound: CN(CCOC1=CC=C(C=C1)C[C@H]2C(=O)NC(=O)S2)C3=CC=CC=N3 (racemic) [rosiglitazone]
Summary of the method: as §1

[20] = compound: CN1CC[C@H](c2c(O)cc(O)c3c(=O)cc(-c4ccccc4Cl)oc23)[C@H](O)C1 [alvocidib]
Summary of the method: as §1

Target | log2 fold change [1] | log2 fold change [2] | log2 fold change [3] | log2 fold change [4] | log2 fold change [5] | log2 fold change [6] | log2 fold change [7] | log2 fold change [8] | log2 fold change [9] | log2 fold change [10] | log2 fold change [11] | log2 fold change [12] | log2 fold change [13] | log2 fold change [14] | log2 fold change [15] | log2 fold change [16] | log2 fold change [17] | log2 fold change [18] | log2 fold change [19] | log2 fold change [20]
CFAP36 isoform 2 (UniProt Q96G28) | inactive: -0.159 | active: -0.433 | inactive: -0.017 | inactive: 0.048 | inactive: 0.005 | inactive: 0.051 | inactive: -0.049 | inactive: -0.01 | inactive: -0.023 | inactive: 0.116 | inactive: 0.1 | inactive: 0.13 | inactive: 0.064 | inactive: -0.058 | inactive: 0.053 | inactive: 0.05 |  |  |  | 
CHCHD7 isoform 4 (UniProt Q9BUK0) | inactive: -0.056 | inactive: -0.072 |  | inactive: 0.104 | inactive: 0.026 | inactive: -0.123 | inactive: -0.013 | inactive: -0.029 | inactive: 0.034 | inactive: -0.058 | inactive: -0.068 | inactive: -0.131 | inactive: 0.013 | inactive: -0.067 | inactive: -0.017 | inactive: 0.083 | inactive: -0.126 | inactive: -0.03 | inactive: 0.103 | inactive: -0.048
CDK2AP2 (UniProt O75956) | inactive: 0.078 |  | inactive: 0.137 |  |  |  |  |  |  |  | inactive: -0.092 |  | inactive: 0.134 |  | inactive: -0.038 |  | inactive: -0.04 |  |  | 
CDCA2 (UniProt Q69YH5) | inactive: 0.193 | inactive: 0.275 | inactive: -0.025 | inactive: 0.152 | inactive: -0.038 |  | inactive: 0.205 |  | inactive: -0.148 | inactive: 0.217 | inactive: -0.152 | inactive: -0.063 | inactive: 0.011 |  | inactive: 0.318 | inactive: -0.03 | inactive: -0.131 |  |  | 
CHERP (UniProt Q8IWX8) | inactive: -0.162 | active: -0.888 | inactive: 0.064 | inactive: 0.022 | inactive: 0.041 | inactive: 0.102 | inactive: -0.05 | inactive: 0.045 | inactive: -0.167 | inactive: 0.119 | inactive: -0.006 | inactive: -0.29 | inactive: 0.022 | inactive: -0.046 | inactive: 0.058 | inactive: 0.002 | inactive: -0.014 |  |  | 
CERT isoform 3 (UniProt Q9Y5P4) | inactive: 0.06 | inactive: 0.044 | inactive: 0.058 | inactive: -0.057 | inactive: -0.019 | inactive: -0.127 | active: 0.279 | inactive: 0.033 | inactive: 0.014 | inactive: -0.105 | inactive: 0.131 | inactive: -0.097 | inactive: -0.009 | inactive: 0.116 | inactive: -0.015 | inactive: 0.047 | inactive: 0.07 |  |  | 
CEBPZOS (UniProt A8MTT3) | inactive: 0.002 | inactive: -0.035 |  | inactive: 0.013 | inactive: -0.001 | inactive: -0.103 | inactive: -0.015 | inactive: 0.079 |  | inactive: -0.06 | inactive: 0.039 | inactive: -0.012 | inactive: 0.159 | inactive: -0.032 | inactive: -0.038 | inactive: -0.02 | inactive: -0.038 |  |  | 
CDC42BPG (UniProt Q6DT37) | inactive: -0.152 |  |  |  | inactive: 0.139 |  |  |  |  |  | inactive: 0.058 | inactive: -0.04 | inactive: 0.126 |  | inactive: -0.099 | inactive: -0.06 |  | inactive: -0.105 |  | 
CENPK (UniProt Q9BS16) | inactive: -0.238 | inactive: -0.154 |  |  | inactive: 0.012 |  |  |  |  |  | inactive: -0.047 | inactive: -0.197 | inactive: 0.007 |  | inactive: -0.006 | inactive: -0.044 | inactive: 0.105 | inactive: -0.023 | inactive: 0.076 | inactive: 0.097
CFB (UniProt P00751) | inactive: -0.366 |  |  | inactive: 0.107 | inactive: -0.071 | inactive: 0.347 | inactive: 0.067 | inactive: 0.211 | inactive: 0.183 |  | inactive: 0.152 | inactive: 0.057 | inactive: 0.173 | inactive: -0.088 | inactive: -0.288 | inactive: 0.192 | inactive: -0.128 | inactive: 0.154 | inactive: 0.047 | inactive: 0.031
CDK13 (UniProt Q14004) | inactive: 0.025 | inactive: 0.09 | inactive: -0.032 | inactive: 0.018 | inactive: 0.004 | inactive: 0.233 | inactive: -0.047 | inactive: -0.133 | inactive: -0.121 | inactive: 0.042 | inactive: -0.071 | inactive: -0.01 | inactive: 0.06 | inactive: -0.129 | inactive: 0.104 | inactive: 0.036 | inactive: 0.034 |  |  | 
CEP85 (UniProt Q6P2H3) | inactive: -0.396 | inactive: 0.009 |  | inactive: 0.074 | inactive: -0.131 | inactive: 0.114 | inactive: -0.052 | inactive: -0.033 |  |  |  | inactive: 0.064 | inactive: 0.263 | inactive: -0.021 | inactive: 0.451 | inactive: -0.05 |  |  | inactive: 0.057 | 
CFAP58 (UniProt Q5T655) | inactive: -0.353 | inactive: -0.04 |  | inactive: -0.112 |  |  | inactive: -0.272 |  |  |  |  |  | active: -1.21 |  | inactive: 0.265 |  |  |  |  | 
CHD4 isoform 2 (UniProt Q14839) | inactive: -0.124 | inactive: -0.382 | inactive: 0.069 | inactive: 0.098 | inactive: 0.048 | inactive: 0.1 | inactive: -0.073 | inactive: -0.006 | inactive: -0.25 | inactive: 0.03 | inactive: 0 | inactive: -0.247 | inactive: 0.043 | inactive: 0.041 | inactive: 0.133 | inactive: 0.017 | inactive: 0.158 |  |  | 
CHM (UniProt P24386) | inactive: -0.004 | inactive: -0.113 | inactive: -0.022 | inactive: 0.079 | inactive: 0.033 | inactive: -0.023 | inactive: 0.023 | inactive: 0.116 | inactive: -0.001 | inactive: -0.059 | inactive: 0.107 | inactive: -0.006 | inactive: 0.009 | inactive: -0.052 | inactive: -0.032 | inactive: 0.06 |  | inactive: -0.051 |  | inactive: -0.092
CDK17 isoform 2 (UniProt Q00537) | inactive: -0.153 | inactive: -0.079 | inactive: 0.07 | inactive: -0.012 | inactive: 0.046 | inactive: 0.022 | inactive: 0.051 | inactive: 0.008 | inactive: -0.036 |  | inactive: -0.017 | inactive: 0.11 | inactive: 0.494 | inactive: 0.06 | inactive: -0.027 | inactive: 0.014 |  |  |  | active: 0.602
CDKN1C (UniProt P49918) | inactive: 0.242 |  | inactive: 0.571 | inactive: -0.363 |  | inactive: 0.002 | inactive: 0.172 | inactive: 0.046 | inactive: -0.284 |  |  |  | inactive: 0 | inactive: -0.193 | inactive: -0.404 |  |  |  | inactive: -0.004 | 
CHAF1A (UniProt Q13111) | inactive: 0.025 | inactive: -0.021 | inactive: -0.039 | inactive: 0.064 |  | inactive: 0.158 | inactive: 0.051 | inactive: 0.008 | inactive: 0.004 |  | inactive: 0.133 |  | inactive: 0.198 | inactive: -0.125 | inactive: 0.094 |  | inactive: 0.036 |  |  | 
CHFR (UniProt Q96EP1) | inactive: -0.045 | inactive: -0.204 | inactive: 0.145 |  | inactive: -0.042 |  |  |  |  | inactive: 0.12 |  | inactive: -0.208 | inactive: 0.063 |  | inactive: 0.088 | inactive: 0.007 |  |  |  | 
CDC5L (UniProt Q99459) | inactive: -0.063 |  |  | inactive: 0.143 | inactive: -0.03 | inactive: 0.085 | inactive: -0.17 | inactive: -0.055 | inactive: 0.096 | inactive: 0.11 | inactive: -0.156 | inactive: -0.109 | inactive: 0.242 | inactive: 0.189 | inactive: 0.21 | inactive: 0.163 |  | inactive: -0.355 |  | inactive: 0.004
CEP350 (UniProt Q5VT06) | inactive: 0.039 | inactive: -0.201 | inactive: -0.049 | inactive: 0.056 |  | inactive: 0.145 | inactive: 0.13 | inactive: -0.173 | inactive: -0.242 | inactive: 0.071 |  |  | inactive: 0.219 | inactive: 0.098 | inactive: 0.267 |  | inactive: 0.097 |  |  | inactive: 0.153
CDC42EP1 (UniProt Q00587) | inactive: -0.005 | inactive: 0.058 | inactive: 0.032 | inactive: -0.051 | inactive: -0.016 | inactive: 0.039 | active: -0.554 | inactive: -0.017 | inactive: 0.025 | inactive: 0.001 | inactive: -0.303 | inactive: -0.144 | inactive: -0.002 | inactive: 0.016 | inactive: -0.017 | inactive: 0.007 | inactive: 0.057 |  |  | 

For convenience, some entries already given.
Target | log2 fold change [1] | log2 fold change [2] | log2 fold change [3] | log2 fold change [4] | log2 fold change [5] | log2 fold change [6] | log2 fold change [7] | log2 fold change [8] | log2 fold change [9] | log2 fold change [10] | log2 fold change [11] | log2 fold change [12] | log2 fold change [13] | log2 fold change [14] | log2 fold change [15] | log2 fold change [16] | log2 fold change [17] | log2 fold change [18] | log2 fold change [19] | log2 fold change [20]
CEP85 (UniProt Q6P2H3) | inactive: -0.396 | inactive: 0.009 |  | inactive: 0.074 | inactive: -0.131 | inactive: 0.114 | inactive: -0.052 | inactive: -0.033 |  |  |  | inactive: 0.064 | inactive: 0.263 | inactive: -0.021 | inactive: 0.451 | inactive: -0.05 |  |  | inactive: 0.057 | 
CFAP58 (UniProt Q5T655) | inactive: -0.353 | inactive: -0.04 |  | inactive: -0.112 |  |  | inactive: -0.272 |  |  |  |  |  | active: -1.21 |  | inactive: 0.265 |  |  |  |  | 
CHD4 isoform 2 (UniProt Q14839) | inactive: -0.124 | inactive: -0.382 | inactive: 0.069 | inactive: 0.098 | inactive: 0.048 | inactive: 0.1 | inactive: -0.073 | inactive: -0.006 | inactive: -0.25 | inactive: 0.03 | inactive: 0 | inactive: -0.247 | inactive: 0.043 | inactive: 0.041 | inactive: 0.133 | inactive: 0.017 | inactive: 0.158 |  |  | 
CHM (UniProt P24386) | inactive: -0.004 | inactive: -0.113 | inactive: -0.022 | inactive: 0.079 | inactive: 0.033 | inactive: -0.023 | inactive: 0.023 | inactive: 0.116 | inactive: -0.001 | inactive: -0.059 | inactive: 0.107 | inactive: -0.006 | inactive: 0.009 | inactive: -0.052 | inactive: -0.032 | inactive: 0.06 |  | inactive: -0.051 |  | inactive: -0.092
CDK17 isoform 2 (UniProt Q00537) | inactive: -0.153 | inactive: -0.079 | inactive: 0.07 | inactive: -0.012 | inactive: 0.046 | inactive: 0.022 | inactive: 0.051 | inactive: 0.008 | inactive: -0.036 |  | inactive: -0.017 | inactive: 0.11 | inactive: 0.494 | inactive: 0.06 | inactive: -0.027 | inactive: 0.014 |  |  |  | active: 0.602
